# Measured values from paper PMC4074974.
# The chains behind the UniProt entries cited, without tags or fusion partners. Where a name states a change or a piece, a line headed by the entry shows the natural chain unless it says otherwise.
# UniProt Q9UQR0: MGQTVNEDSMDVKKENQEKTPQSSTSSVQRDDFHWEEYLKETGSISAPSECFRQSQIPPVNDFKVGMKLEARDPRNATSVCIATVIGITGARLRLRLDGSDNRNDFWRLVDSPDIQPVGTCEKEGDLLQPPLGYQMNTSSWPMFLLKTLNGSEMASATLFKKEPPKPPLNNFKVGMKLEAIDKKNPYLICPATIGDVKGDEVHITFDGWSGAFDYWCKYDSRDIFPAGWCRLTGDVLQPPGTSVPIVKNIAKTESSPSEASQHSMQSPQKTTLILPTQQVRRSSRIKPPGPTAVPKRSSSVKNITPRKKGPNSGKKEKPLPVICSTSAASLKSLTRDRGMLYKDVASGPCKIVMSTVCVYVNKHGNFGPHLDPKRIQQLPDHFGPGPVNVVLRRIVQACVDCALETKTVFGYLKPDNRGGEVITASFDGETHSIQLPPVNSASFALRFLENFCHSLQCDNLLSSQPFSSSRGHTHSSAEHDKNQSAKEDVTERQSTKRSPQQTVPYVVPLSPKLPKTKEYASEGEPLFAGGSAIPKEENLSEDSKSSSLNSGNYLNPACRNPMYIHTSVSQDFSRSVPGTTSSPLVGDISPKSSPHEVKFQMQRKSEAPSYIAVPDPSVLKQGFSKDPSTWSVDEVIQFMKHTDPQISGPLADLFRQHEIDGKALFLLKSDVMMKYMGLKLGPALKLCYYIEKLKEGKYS
# No constants are given. Whether binding was seen depends on the method and setting. In cells and extracts the contact can be indirect.
# Target: N3-SCML2A ΔRBR (FLAG-HA-Twin-Strep-tagged SCML2A lacking the RNA-binding region) (human) (UniProt Q9UQR0)
# Assay: pull-down; pull-down of epitope-tagged SCML2 from induced 293T-REx; input, flow-through and pull-down blotted for untagged SCML2
substance,measurement,value
"SCML2 (endogenous, untagged; isoforms not told apart) (from UniProt Q9UQR0 1-700)",binding,no binding
